Experimental data: paper PMC9359528, “DNA binding by the Rad9A subunit of the Rad9-Rad1-Hus1 complex”

Target: T1, R150A Rad9A 94-266 (Homo sapiens) (UniProt Q99638)
T1 sequence (looked up): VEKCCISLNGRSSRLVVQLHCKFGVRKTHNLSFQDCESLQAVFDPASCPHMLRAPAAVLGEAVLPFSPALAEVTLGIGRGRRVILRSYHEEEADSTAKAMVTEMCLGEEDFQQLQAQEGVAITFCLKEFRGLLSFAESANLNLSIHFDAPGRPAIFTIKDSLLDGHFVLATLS
Assay: EMSA
Conditions: protein likely insoluble (DLS PDI 44%); EMSA: 20 mM Tris-HCl pH 7.6, 80 mM NaCl, 1 mM DTT, 1 mM EDTA, 1.5% glycerol, 200 ng/ml poly dI/dC, 50 ug/ml BSA, 10 nM DNA; 6% native PAGE in 50 mM Tris-borate pH 8.3; recombinant protein; residues 94-266; protein details: His; label: 5'-fluorescein (6-carboxyfluorescein) on HC40

“CCGAGGAATTCGCCTTCTGCTCCATAGCCACTGGTTGTAG (double strand) [HC40/HG40]”: no binding.

A negative result means that nothing was seen under these conditions. Where a protein sequence is shown, tags need not be part of it.
